{
  "sequences": {"note": "The chains behind the UniProt entries cited, without tags or fusion partners.", "UniProt Q86Y07, whole entry, species assumed": "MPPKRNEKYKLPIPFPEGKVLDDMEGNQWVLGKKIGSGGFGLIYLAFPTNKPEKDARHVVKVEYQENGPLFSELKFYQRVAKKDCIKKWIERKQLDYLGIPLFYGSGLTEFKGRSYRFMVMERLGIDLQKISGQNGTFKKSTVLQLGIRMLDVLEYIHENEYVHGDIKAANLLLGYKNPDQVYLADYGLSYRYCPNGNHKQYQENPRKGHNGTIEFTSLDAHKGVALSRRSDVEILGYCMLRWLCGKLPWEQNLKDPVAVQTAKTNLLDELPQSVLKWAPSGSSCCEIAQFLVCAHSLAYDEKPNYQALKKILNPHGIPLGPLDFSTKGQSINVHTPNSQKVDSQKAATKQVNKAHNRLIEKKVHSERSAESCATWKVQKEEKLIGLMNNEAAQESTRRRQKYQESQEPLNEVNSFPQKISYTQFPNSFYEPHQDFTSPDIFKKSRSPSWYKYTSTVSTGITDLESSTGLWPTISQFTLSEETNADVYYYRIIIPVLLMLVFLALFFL"},
  "source": "patent US20220304974A1",
  "about": "“COMPOSITION COMPRISING GOSSYPETIN FOR PREVENTION OR TREATMENT OF NEURODEGENERATIVE DISEASE” (NOVMETAHEALTH CO.,LTD., priority 2019, published 2022)",
  "key": {"[1]": {"system": "5×FAD Alzheimer's disease-induced mice", "experiment": "Y-maze test in Alzheimer's disease-induced mice", "assay_type": "in vivo, mouse", "conditions": "5×FAD mice, oral 10 mg/kg for 15 weeks from 8 weeks of age; FIG. 12", "experimental": "(§1) […] Thereafter, Y-maze and Morris water maze tests were performed, which are widely used to check cognitive function. Specifically, short-term memory was assessed through the Y-maze test. The Morris water maze test was performed one week after the Y-maze test. Each mouse was trained to remember the location of the platform for 5 days, and then the time for the mouse to reach the platform was measured. On day 6 after the platform memory training, the platform was removed from the water tank, and the frequency of mouse staying at the site where the platform had been located was measured."}, "[2]": {"system": "5×FAD Alzheimer's disease-induced mice", "experiment": "Morris water maze test in Alzheimer's disease-induced mice", "assay_type": "in vivo, mouse", "conditions": "5×FAD mice, oral 10 mg/kg for 16 weeks from 8 weeks of age; platform removed on Day 6; FIG. 13", "experimental": "as §1\nIn the water maze test, the mice were trained to find a platform placed under the surface in a water tank for 5 days, and then on Day 6, the platform was removed, and it was monitored how well the mice remembered the site where the platform had been located."}, "VRK2": {"molecular_target": "VRK2 (Homo sapiens, UniProt Q86Y07)", "experiment": "VRK2 activity inhibition (in vitro kinase assay, autophosphorylation)", "assay_type": "biochemical", "conditions": "same concentration of 25 μM; FIG. 10", "source_text": "The kinase VRK2 is known to prevent the elimination of polyglutamine aggregates by regulating TRiC chaperone protein in cells.\nThe cytotoxicity of each compound was also examined."}},
  "note": "At least one compound was matched to its structure with a doubt left.",
  "data": [
    {"compound": "O=c1cc2oc3cc(O)c(-c4ccc(O)cc4O)cc3nc-2cc1-c1ccc(O)cc1O", "note": "[lacmoid, reference compound]", "values": [
      {"measurement": "cognitive function (Y-maze test)", "setting": "[1]", "value": "did not contribute to the alleviation of such cognitive function decline"},
      {"measurement": "memory of the platform site (water maze test)", "setting": "[2]", "value": "rather defective"},
      {"measurement": "autophosphorylation activity of VRK2", "setting": "VRK2", "value": "insignificant VRK2 activity inhibition"}
    ]}
  ]
}
